Source: US20120046251A1, “INHIBITORS OF SOLUBLE EPOXIDE HYDROLASE TO INHIBIT OR PREVENT NIACIN-INDUCED FLUSHING” (The Regents of the University of California, priority 2009, published 2012)
At least one structure is not confirmed: it was looked up by name or label, or the drawing left a doubt.

Test system: C57BL/6 mice
Assay: Niacin-induced flushing: laser Doppler ear blood flow in anesthetized mice
Format: in vivo, mouse
Details: i.p. 30 minutes before niacin 30 mg/kg; TPAU 0.01-1 mg/kg, others 4 mg/kg
Procedure: For the experiments, mice were anesthetized using Nembutal (50 mg/kg) given by intraperitoneal (I.P.) injection. […]
Laser Doppler ear blood flow: The change in ear flow was measured using a laser doppler flowmeter (BLF 21, on loan from Transonic Systems, Inc., Ithaca, N.Y.). […] The laser doppler probe was fitted with a sleeve of 2 mm length plastic tubing and attached to a micromanipulator to standardize the depth of the tissue being measured. Blood flow was measured at 30 second intervals before and during exposure to compounds. Baseline blood flow was established by the average of measurements over 5 min prior to injection of drug or vehicle. Data were analyzed as a fraction of baseline.
Mice were anesthetized with Nembutal™ (50 mg/kg) and ear cutaneous perfusion was measured as explained above. Animals were then injected with a niacin solution (30 mg/kg, in physiological saline) and response (% tissue perfusion) after 3 minutes measured.

With `Cc1ccc(-c2cc(C(F)(F)F)nn2-c2ccc(S(N)(=O)=O)cc2)cc1` [celecoxib] the “peak ear tissue perfusion after niacin (composite, FIG. 9)” value was “significantly reduced peak ear tissue perfusion”.
